Measured values: publication doi:10.1101/2023.10.13.562244
Like-named read-outs stand apart in the source and are kept apart here. No constants are given. Whether binding was seen depends on the method and setting. In cells and extracts the contact can be indirect. A yes stands for co-enrichment or nearness to the bait. Other partners may have been found. Values belong to the molecule of their own block, whether it stands above or below them.

Protein sequences, listed by entry. Tags and fused reporters are not part of them.
UniProt Q3TKT4: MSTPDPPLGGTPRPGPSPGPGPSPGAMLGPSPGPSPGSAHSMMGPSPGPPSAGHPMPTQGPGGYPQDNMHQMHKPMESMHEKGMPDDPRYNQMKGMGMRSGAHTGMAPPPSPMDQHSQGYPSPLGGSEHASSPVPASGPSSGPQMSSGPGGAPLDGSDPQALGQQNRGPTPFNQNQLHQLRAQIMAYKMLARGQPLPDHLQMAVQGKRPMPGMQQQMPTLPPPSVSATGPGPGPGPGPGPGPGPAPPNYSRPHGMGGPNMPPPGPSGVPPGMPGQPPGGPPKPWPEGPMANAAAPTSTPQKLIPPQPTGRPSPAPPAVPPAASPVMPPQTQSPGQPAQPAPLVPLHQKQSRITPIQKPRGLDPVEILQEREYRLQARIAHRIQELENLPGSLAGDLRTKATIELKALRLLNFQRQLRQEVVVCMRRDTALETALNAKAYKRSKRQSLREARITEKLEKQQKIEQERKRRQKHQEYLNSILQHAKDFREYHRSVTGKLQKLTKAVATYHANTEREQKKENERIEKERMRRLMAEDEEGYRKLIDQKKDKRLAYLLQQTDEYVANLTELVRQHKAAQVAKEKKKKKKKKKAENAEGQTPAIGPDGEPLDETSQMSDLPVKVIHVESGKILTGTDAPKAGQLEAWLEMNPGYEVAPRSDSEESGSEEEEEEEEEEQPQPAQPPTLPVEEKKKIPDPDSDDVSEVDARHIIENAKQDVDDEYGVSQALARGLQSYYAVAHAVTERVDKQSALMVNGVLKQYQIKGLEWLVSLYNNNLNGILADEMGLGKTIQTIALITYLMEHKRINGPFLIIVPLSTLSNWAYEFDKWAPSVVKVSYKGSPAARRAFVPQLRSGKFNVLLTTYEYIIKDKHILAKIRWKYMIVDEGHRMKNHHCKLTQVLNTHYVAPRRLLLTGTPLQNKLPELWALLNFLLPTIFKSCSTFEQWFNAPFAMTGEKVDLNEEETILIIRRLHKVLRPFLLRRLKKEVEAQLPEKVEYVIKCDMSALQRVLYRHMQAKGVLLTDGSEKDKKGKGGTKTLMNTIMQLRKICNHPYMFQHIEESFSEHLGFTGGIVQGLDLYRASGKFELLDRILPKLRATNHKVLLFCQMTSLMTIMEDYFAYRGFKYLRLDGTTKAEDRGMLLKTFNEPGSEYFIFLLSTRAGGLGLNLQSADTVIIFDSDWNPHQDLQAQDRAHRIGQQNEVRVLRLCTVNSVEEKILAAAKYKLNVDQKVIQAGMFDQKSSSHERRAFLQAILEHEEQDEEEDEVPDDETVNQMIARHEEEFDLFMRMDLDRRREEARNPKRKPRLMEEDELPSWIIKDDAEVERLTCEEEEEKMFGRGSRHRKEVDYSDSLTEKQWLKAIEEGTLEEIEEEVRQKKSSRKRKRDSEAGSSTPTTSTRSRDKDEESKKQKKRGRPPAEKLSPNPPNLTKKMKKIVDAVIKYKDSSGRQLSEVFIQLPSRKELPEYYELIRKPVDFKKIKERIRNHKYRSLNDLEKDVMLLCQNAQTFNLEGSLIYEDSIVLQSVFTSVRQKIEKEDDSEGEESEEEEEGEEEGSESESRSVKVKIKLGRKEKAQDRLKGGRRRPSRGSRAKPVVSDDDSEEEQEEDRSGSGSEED
UniProt Q8CHH5: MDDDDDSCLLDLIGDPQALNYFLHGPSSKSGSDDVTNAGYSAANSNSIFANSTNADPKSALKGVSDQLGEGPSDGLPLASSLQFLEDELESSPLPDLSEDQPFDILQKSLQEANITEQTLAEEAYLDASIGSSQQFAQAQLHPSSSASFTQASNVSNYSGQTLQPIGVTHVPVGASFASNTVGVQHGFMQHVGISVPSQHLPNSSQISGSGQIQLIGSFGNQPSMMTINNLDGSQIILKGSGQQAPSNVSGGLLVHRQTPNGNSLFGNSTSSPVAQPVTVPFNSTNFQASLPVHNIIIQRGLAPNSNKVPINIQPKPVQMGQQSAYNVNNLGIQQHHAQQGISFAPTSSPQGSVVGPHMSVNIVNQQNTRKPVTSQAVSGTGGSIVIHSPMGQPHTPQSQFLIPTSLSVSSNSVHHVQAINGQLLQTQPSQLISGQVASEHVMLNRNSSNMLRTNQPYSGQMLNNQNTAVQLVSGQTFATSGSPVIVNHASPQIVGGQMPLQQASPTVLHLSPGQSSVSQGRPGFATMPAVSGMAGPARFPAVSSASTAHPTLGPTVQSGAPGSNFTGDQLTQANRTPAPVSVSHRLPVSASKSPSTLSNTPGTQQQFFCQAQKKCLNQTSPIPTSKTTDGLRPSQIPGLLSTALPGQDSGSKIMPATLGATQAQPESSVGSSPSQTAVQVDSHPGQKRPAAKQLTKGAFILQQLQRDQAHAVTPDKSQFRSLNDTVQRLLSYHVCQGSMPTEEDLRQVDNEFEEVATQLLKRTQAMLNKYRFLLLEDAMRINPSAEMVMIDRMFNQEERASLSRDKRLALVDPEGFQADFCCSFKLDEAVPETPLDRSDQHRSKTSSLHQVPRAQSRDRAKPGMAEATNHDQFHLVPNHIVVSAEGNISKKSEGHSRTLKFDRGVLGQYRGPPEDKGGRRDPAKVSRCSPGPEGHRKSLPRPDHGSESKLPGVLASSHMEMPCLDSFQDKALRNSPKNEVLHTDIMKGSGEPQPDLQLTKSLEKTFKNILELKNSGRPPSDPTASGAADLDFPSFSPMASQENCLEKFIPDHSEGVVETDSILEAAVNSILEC
UniProt O54941: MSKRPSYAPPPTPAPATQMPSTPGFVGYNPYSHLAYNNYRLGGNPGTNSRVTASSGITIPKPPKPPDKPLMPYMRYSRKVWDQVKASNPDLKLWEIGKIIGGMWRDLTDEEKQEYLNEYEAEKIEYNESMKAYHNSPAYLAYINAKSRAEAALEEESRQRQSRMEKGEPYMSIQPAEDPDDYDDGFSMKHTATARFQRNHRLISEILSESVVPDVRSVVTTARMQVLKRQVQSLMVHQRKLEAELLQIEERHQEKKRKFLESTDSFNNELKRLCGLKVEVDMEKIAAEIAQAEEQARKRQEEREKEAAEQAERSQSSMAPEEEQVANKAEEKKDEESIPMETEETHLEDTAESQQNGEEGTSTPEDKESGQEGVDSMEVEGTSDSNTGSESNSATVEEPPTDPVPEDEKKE
UniProt Q9QX66: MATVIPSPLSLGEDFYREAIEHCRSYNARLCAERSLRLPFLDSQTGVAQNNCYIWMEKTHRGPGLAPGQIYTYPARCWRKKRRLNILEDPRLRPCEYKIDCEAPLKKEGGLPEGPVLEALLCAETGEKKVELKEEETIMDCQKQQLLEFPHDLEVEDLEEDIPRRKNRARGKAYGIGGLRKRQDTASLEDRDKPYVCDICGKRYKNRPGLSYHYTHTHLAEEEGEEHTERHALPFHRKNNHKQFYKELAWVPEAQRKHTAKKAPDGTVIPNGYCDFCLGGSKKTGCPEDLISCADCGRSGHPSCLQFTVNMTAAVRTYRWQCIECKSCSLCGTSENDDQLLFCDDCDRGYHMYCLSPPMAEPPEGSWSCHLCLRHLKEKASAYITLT
UniProt F8VPZ9: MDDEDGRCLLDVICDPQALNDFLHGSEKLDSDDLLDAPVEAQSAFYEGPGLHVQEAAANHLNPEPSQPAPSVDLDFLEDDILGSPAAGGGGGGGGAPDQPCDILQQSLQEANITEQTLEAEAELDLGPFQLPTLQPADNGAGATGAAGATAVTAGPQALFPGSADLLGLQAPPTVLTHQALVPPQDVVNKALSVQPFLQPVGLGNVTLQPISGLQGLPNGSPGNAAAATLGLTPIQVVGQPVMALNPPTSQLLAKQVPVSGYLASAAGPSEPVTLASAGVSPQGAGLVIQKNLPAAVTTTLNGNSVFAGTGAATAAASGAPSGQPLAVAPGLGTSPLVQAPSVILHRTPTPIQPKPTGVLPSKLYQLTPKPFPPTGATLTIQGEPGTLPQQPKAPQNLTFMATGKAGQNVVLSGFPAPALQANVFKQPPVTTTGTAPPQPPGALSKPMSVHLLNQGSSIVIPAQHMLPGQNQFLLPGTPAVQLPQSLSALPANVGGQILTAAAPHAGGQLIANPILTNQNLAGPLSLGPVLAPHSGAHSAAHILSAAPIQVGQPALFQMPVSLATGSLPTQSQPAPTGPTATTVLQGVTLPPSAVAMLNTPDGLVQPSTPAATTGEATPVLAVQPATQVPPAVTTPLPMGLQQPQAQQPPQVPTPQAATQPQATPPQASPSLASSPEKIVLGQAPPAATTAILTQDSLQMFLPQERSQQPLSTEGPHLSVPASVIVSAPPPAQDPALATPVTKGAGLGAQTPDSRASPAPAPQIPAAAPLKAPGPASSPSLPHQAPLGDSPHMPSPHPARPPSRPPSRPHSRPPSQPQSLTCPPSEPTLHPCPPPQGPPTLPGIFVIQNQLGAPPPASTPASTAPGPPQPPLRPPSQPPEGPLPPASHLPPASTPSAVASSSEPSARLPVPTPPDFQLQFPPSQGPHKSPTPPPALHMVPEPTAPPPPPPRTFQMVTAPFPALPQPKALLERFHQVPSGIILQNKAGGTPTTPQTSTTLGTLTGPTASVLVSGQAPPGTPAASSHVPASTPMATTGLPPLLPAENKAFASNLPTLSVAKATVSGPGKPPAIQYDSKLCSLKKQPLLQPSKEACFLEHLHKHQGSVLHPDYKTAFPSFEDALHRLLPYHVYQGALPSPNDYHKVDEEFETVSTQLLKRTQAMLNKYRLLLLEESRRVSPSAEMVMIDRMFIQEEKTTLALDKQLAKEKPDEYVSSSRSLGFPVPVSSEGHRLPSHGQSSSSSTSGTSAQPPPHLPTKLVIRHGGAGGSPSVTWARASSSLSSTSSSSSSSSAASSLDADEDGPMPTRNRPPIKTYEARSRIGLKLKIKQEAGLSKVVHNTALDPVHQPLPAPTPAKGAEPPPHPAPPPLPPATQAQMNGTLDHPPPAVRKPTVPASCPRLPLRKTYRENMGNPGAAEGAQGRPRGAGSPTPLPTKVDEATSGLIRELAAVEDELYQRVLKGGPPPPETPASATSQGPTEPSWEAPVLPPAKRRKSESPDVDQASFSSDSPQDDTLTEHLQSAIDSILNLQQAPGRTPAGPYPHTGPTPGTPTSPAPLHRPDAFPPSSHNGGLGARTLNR

Key:
[1] = target: Brg1/Smarca4 (mouse (endogenous in primary cortical neurons)) (UniProt Q3TKT4); test: affinity purification with mass spectrometry
[2] = target: Brg1/Smarca4 (mouse (endogenous in primary cortical neurons)) (UniProt Q3TKT4); test: affinity purification with mass spectrometry; remark: listed apart in the source

Molecule: Bicra/Gltscrl1 (from UniProt Q8CHH5 1-1074)
binding [1]: binds

Molecule: Baf57/Smarce1 (from UniProt O54941 1-411)
binding [1]: binds

Molecule: Baf45b/Dpf1 (from UniProt Q9QX66 1-387)
binding [1]: binds

B1: Dclk2 (doublecortin like kinase 2) (protein, UniProt Q6PGN3 1-756)
chain: MASTRSIELEHFEERDKRPRPGSRRGAPSSSGGSSISGPKGNGLIPSPAHSAHCSFYRTRTLQALSSEKKAKKARFYRNGDRYFKGLVFAISNDRFRSFDALLIELTRSLSDNVNLPQGVRTIYTIDGSRKVTSLDELLEGESYVCASNEPFRKVDYTKNVNPNWSVNIKGGTTRTLAVASAKSEVKESKDFIKPKLVTVIRSGVKPRKAVRILLNKKTAHSFEQVLTDITEAIKLDSGVVKRLCTLDGKQVTCLQDFFGDDDVFIACGPEKYRYAQDDFVLDHSECRVLKSSYSRASAAKYSGSRSPGFSRRSKSPASVNGTPSSQLSTPKSTKSSSSSPTSPGSFRGLKQISAQGRSSSNVNGGPELDRCLSPEGVNGNRCSESFPLLEKYRIGKVIGDGNFAVVKECVDRYTGKEFALKIIDKAKCCGKEHLIENEVSILRRVKHPNIIMLVEEMETATDLFLVMELVKGGDLFDAITSSTKYTERDGSAMVYNLANALRYLHSLSIVHRDIKPENLLVCEYPDGTKSLKLGDFGLATVVEGPLYTVCGTPTYVAPEIIAETGYGLKVDVWAAGVITYILLCGFPPFRSENNLQEDLFDQILAGKLEFPAPYWDNITDSAKELISQMLQVNVEARCTAGEILSHPWVSDDASQENNMQAEVTGKLKQHFNNALPKQNSTTTGVSVIMNTALDKEGQIFCSKLCQDSSRPSREQTSPVPPSAQEAPPPLESPRPPGPPATSGCDLAGTWRRHRD
binding [2]: binds

Other lines, results leading:

binding [1]: binds
Molecule: Bicra/Gltscr1 (from UniProt F8VPZ9 1-1578)

binding [2]: binds
B2: Baf45a/Phf10 (protein, UniProt Q9D8M7 1-497)
chain: MTAAGPGAAPSPGRCDSDPASPGAQSPKDDNEDNSNDGTHPCKRRRMGSGDSSRSCETSSQDLSFSYYPAENLIEYKWPPDETGEYYMLQEQVSEYLGVTSFKRKYPDLERRDLSHKEKLYLRELNVITETQCTLGLTALRSDEVIDLMIKEYPAKHAEYSVILQEKERQRITDHYKEYSQMQQQSTQKVEASKVPEYIKKAAKKAAEFNSNLNRERMEERRAYFDLQTHVIQVPQGKYKVLPTDRTKVSSYPVALIPGQFQEYYKRYSPDELRYLPLNTALYEPPLDPELPALDSDGDSDDGEDGGGDEKRKNKGTSDSSSGNVSEGDSPPDSQEDTFHGRQKSKDKMATPRKDGSKRSVLSKSAPGYKPKVIPNALCGICLKGKESNKKGKAESLIHCSQCDNSGHPSCLDMTMELVSMIKTYPWQCMECKTCIICGQPHHEEEMMFCDVCDRGYHTFCVGLGAIPSGRWICDCCQRAPPTPRKVGRRGKNSKEG
